Among the data in publication PMC10486786 are binding values, retold here.

By UniProt entry, the sequences of proteins in these tests, tags left out. Residues count along the entry.
UniProt Q9NZQ7, residues 19-290: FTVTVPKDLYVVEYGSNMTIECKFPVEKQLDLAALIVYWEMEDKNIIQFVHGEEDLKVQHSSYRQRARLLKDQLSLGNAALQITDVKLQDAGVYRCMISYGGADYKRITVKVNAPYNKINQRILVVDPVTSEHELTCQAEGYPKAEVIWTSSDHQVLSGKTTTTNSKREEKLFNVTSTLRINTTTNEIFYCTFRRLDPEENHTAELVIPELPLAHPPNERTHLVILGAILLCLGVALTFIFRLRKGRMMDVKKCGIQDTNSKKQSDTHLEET
UniProt P51681: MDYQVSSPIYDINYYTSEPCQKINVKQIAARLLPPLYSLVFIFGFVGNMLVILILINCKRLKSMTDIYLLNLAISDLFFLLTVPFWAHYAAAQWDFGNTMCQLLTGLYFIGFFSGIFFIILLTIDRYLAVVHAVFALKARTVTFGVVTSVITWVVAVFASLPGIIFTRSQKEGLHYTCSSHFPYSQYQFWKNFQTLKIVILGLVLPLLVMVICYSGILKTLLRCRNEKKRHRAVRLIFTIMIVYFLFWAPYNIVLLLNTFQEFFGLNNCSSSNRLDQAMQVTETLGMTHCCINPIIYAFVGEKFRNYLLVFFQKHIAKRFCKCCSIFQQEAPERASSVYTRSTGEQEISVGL
UniProt Q9UJU2: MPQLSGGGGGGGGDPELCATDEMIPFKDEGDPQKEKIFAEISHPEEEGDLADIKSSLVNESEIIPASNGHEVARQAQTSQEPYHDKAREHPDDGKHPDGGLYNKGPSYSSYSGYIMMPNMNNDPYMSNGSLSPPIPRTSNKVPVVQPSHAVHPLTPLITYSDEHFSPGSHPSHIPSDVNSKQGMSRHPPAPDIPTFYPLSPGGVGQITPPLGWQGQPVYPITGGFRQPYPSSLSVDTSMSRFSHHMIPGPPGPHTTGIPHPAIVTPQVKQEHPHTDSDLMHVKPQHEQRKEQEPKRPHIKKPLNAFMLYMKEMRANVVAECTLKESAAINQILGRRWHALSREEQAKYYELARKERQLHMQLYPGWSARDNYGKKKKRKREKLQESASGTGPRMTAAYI

Assay [1] addresses T1, syndecan-1, endogenous in HMVECs (human (endogenous in HMVECs)) (UniProt P18827).
T1 sequence: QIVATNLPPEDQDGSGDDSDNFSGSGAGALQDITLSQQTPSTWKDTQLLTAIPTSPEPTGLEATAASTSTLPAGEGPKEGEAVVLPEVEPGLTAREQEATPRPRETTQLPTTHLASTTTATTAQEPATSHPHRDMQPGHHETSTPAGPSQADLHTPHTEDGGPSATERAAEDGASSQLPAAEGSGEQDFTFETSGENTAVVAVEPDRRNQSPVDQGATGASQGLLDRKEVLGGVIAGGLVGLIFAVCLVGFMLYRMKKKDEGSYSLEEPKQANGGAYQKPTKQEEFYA
The assay is described as follows: co-IP; lysates of HMVECs or HBMECs, untreated or treated with recombinant YKL-40 (200 ng/mL), conditioned media, or shRNA; antibody 12 h at 4 °C, protein G Sepharose, immunoblot.

The target of assay [2] is T2, vascular endothelial cadherin (VE-cad), endogenous in endothelial cells (human (endogenous in HMVECs and HBMECs)) (UniProt P33151).
T2 sequence: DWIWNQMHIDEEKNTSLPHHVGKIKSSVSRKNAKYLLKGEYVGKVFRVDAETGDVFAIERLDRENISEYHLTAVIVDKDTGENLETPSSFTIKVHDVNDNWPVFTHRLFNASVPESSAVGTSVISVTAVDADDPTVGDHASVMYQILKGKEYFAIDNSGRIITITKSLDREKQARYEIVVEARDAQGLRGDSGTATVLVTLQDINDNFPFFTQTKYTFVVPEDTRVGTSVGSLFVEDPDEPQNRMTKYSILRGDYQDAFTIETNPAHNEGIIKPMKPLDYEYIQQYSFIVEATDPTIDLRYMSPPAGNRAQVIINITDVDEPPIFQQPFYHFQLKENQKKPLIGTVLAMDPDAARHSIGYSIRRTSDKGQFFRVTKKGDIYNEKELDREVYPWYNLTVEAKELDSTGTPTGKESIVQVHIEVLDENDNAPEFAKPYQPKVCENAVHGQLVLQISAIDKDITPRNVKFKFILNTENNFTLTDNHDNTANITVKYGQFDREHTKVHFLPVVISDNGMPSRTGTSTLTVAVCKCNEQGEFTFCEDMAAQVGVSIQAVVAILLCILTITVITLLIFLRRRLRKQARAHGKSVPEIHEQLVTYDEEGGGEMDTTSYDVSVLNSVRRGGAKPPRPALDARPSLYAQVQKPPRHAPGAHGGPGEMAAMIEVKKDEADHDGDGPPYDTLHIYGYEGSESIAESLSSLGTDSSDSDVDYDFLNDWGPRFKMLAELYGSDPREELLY
Described as above.

The target in assay [3] is T2, vascular endothelial cadherin (VE-cad), endogenous in endothelial cells (human (endogenous in HMVECs and HBMECs)). The assay is described as follows: condition: only cells treated with YKL-40 (200 ng/mL); co-IP; lysates of HMVECs or HBMECs treated with recombinant YKL-40 (200 ng/mL); antibody 12 h at 4 °C, protein G Sepharose, immunoblot.
The target of assay [4] is β-catenin, endogenous in endothelial cells (human (endogenous in HMVECs and HBMECs)) (UniProt P35222). The assay is described as follows: co-IP; lysates of HMVECs or HBMECs, untreated or treated with recombinant YKL-40 (200 ng/mL), conditioned media, or shRNA; antibody 12 h at 4 °C, protein G Sepharose, immunoblot.
Assay [5] concerns the target T3, β-catenin, endogenous in endothelial cells (human (endogenous in HMVECs and HBMECs)), P35222.
T3 chain: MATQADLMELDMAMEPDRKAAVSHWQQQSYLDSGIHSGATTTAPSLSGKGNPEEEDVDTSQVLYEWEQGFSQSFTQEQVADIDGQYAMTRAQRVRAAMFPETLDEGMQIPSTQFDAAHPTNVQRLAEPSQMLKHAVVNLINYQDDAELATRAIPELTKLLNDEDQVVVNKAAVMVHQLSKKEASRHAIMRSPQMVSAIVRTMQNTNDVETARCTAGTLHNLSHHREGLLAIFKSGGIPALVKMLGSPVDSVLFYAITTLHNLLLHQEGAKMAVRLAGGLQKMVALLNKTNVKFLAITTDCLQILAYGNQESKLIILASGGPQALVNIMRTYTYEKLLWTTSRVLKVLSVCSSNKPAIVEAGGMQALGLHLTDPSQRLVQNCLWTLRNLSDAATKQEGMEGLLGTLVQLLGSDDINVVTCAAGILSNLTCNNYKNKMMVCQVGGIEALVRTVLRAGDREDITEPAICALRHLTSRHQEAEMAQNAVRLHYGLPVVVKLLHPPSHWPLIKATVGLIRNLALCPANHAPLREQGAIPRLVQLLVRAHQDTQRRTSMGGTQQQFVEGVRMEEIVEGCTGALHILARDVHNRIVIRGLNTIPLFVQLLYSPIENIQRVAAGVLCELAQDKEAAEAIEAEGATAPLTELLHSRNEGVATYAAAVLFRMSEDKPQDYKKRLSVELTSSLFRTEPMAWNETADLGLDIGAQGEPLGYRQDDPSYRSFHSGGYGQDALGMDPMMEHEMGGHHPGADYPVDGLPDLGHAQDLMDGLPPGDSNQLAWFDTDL
Described as above. The following applies: remark: other sources report otherwise.

The target of assay [6] is programmed death ligand 1 (PD-L1), endogenous in endothelial cells (human (endogenous in HMVECs and HBMECs)) (UniProt Q9NZQ7). The assay is described as above.

No constants are given. Whether binding was seen depends on the method and setting. Binding seen in cells or lysates may run through a third protein. Some entries that bind do so weakly or less than the wild type.

For “programmed death ligand 1 (PD-L1), endogenous in endothelial cells (from UniProt Q9NZQ7 19-290)”, the binding entry is “binds” in assay [1], “binds” in assay [2] and “no binding” in assay [3].

For the molecule “CCR5, endogenous in HMVECs (from UniProt P51681 1-352) (receptor)”, the binding result in assay [2] is “binds”.

With “LEF1, endogenous in endothelial cells (from UniProt Q9UJU2 1-399)”, the binding result in assay [4] was “binds”.

B1: vascular endothelial cadherin (VE-cad), endogenous in endothelial cells, P33151 48-784 (protein)
chain: DWIWNQMHIDEEKNTSLPHHVGKIKSSVSRKNAKYLLKGEYVGKVFRVDAETGDVFAIERLDRENISEYHLTAVIVDKDTGENLETPSSFTIKVHDVNDNWPVFTHRLFNASVPESSAVGTSVISVTAVDADDPTVGDHASVMYQILKGKEYFAIDNSGRIITITKSLDREKQARYEIVVEARDAQGLRGDSGTATVLVTLQDINDNFPFFTQTKYTFVVPEDTRVGTSVGSLFVEDPDEPQNRMTKYSILRGDYQDAFTIETNPAHNEGIIKPMKPLDYEYIQQYSFIVEATDPTIDLRYMSPPAGNRAQVIINITDVDEPPIFQQPFYHFQLKENQKKPLIGTVLAMDPDAARHSIGYSIRRTSDKGQFFRVTKKGDIYNEKELDREVYPWYNLTVEAKELDSTGTPTGKESIVQVHIEVLDENDNAPEFAKPYQPKVCENAVHGQLVLQISAIDKDITPRNVKFKFILNTENNFTLTDNHDNTANITVKYGQFDREHTKVHFLPVVISDNGMPSRTGTSTLTVAVCKCNEQGEFTFCEDMAAQVGVSIQAVVAILLCILTITVITLLIFLRRRLRKQARAHGKSVPEIHEQLVTYDEEGGGEMDTTSYDVSVLNSVRRGGAKPPRPALDARPSLYAQVQKPPRHAPGAHGGPGEMAAMIEVKKDEADHDGDGPPYDTLHIYGYEGSESIAESLSSLGTDSSDSDVDYDFLNDWGPRFKMLAELYGSDPREELLY
As for B1, in assay [5], the binding result is recorded as “binds”.

B2: syndecan-1, endogenous in HMVECs (protein, UniProt P18827 23-310)
chain: QIVATNLPPEDQDGSGDDSDNFSGSGAGALQDITLSQQTPSTWKDTQLLTAIPTSPEPTGLEATAASTSTLPAGEGPKEGEAVVLPEVEPGLTAREQEATPRPRETTQLPTTHLASTTTATTAQEPATSHPHRDMQPGHHETSTPAGPSQADLHTPHTEDGGPSATERAAEDGASSQLPAAEGSGEQDFTFETSGENTAVVAVEPDRRNQSPVDQGATGASQGLLDRKEVLGGVIAGGLVGLIFAVCLVGFMLYRMKKKDEGSYSLEEPKQANGGAYQKPTKQEEFYA
As for B2, the binding result in assay [2] and in assay [6] was “binds” each time.
